# Some results were stated once for a whole list of compounds, not compound by compound.
# System: Rat basophilic leukemia (RBL-2H3) cells
# Assay: Mast cell degranulation assay (β-hexosaminidase release)
# Assay type: cell-based
# Settings: FIGS. 1 to 8
# Experimental: The assay measures release of β-hexosaminidase as a marker of release of various preformed pharmacological agents in response to clustering of the high affinity IgE receptor (FcεRI) by means of multivalent antigen-IgE complexes. Rat basophilic leukemia (RBL-2H3) cells, a commonly used model of mast cell degranulation, are sensitized with anti-DNP specific IgE and challenged with multivalent DNP-BSA. The release of β-hexosaminidase into the supernatant is measured by enzymatic conversion of the fluorogenic substrate 4-methylumbelliferyl-N-acetyl-β-D-glucosaminide to N-acetyl-β-D-glucosamine and highly fluorescent methylumbelliferone and quantified by fluorescence detection in a Tecan Safire™ plate reader. […]
# Two to 24 hours before incubation with test compounds the medium was removed and cells were sensitized with 0.4 μg/ml anti-DNP IgE in fresh medium. […] Hexosaminidase activity in supernatants and lysates was measured by incubating 25 μl aliquots with 100 μl MUG substrate solution in a 96-well plate at 37° C. for 30 min. […] Fluorescence was measured in a Tecan Safire™ plate reader at 365 nm excitation and 440 nm emission settings.
# Each compound is tested in duplicates in at least three independent experiments. β-hexosaminidase release is calculated after subtraction of unspecific release (release without addition of antigen) using the formula: % degranulation=100×RFU supernatant/RFU lysate […]
smiles,measurement,value
"CCCCCCCCCCCCCCCC(=O)OC[C@H](O)COP(=O)([O-])OCC[N+](C)(C)C [Compound 20, 1-palmitoyl-2-hydroxy-sn-glycero-3-phosphocholine]",activity in the mast cell degranulation assay (in words),still showed activity

# From US8394785B2, “Methods for the treatment and amelioration of urticaria” (Jado Technologies GmbH, priority 2005, dated 2013)
